Laboratory results from PubChem BioAssay AID1347076 (National Center for Advancing Translational Sciences (NCATS), 2019).
Hit rate of the full screen: of about 400,000 compounds, about 13,000 (3.2%) were called active. Inconclusive results, whose numbers are uncertain, are shown with a selection of clear calls. Calls come from the whole dose curve; as a rule, active = well fitted cell-killing curve with a large enough effect; inconclusive = small, poorly fitted or top-dose-only effect, or effect the other way; inactive = flat fitted curve, though single readings scatter. A potency beside an inconclusive call is a rough fit, not a confirmed value.

Assay: qHTS assay for MDR1-selective chemotherapeutics: Primary screen using the drug-selected MDR subline cells KB-V1; note: nearly all actives have a fitted effect of over 60% in size
Settings: KB-V1 MDR cells viability, CellTiter-Glo, 72 h; activity change, negative = cytotoxicity: at 46.1 µM (top of the series)
Summary of the method: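 Drug-selected KB-V1 cells, grown in DMEM lacking phenol red with 10% FBS, receive compound titrations; after three days at 37 degrees C, surviving cell ATP is quantified by CellTiter-Glo luminescence and responses normalized and curve-fitted.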
% is set by controls: 0 for no effect and ±100 for the full control effect; potency is the fitted concentration of half-maximal effect.

Row | SMILES | Potency | activity change, negative = cytotoxicity
1 | O=C(NCc1cccnc1)c1cccc2c1C(=O)N(Cc1cccnc1)C2 | inconclusive: 23.1 µM [cytotoxic, partial curve, poor fit] | –
2 | CC1=C(C(=O)Nc2ccc(C)cc2C)C(c2cccn2C)n2ncnc2N1 (stereo unspecified) | inconclusive: 0.651 µM [rising, full curve, poor fit] | –
3 | CCN(Cc1ccc2c(c1)OCCO2)C(=O)CN1C(=O)NC2(CCCCC2)C1=O | active: 18.4 µM | –
4 | O=C(NCc1ccc2c(c1)OCO2)c1c(-c2ccccc2)sc2ccccc12 | – | inconclusive: 17.1%
5 | CC(=O)c1c(Cl)nc2ccc(Br)cc2c1-c1ccccc1 | inconclusive: 29.1 µM [cytotoxic, single point] | –
6 | Cc1ccc(C)c(N2CCN(c3nc4ccccc4c4nc(-c5cccnc5)nn34)CC2)c1 | inconclusive: 20.6 µM [rising, partial curve, poor fit] | –
7 | CCOc1cc2c3c(c1)C(C)=CC(C)(C)N3C(=O)C2=O | inconclusive: 29.1 µM [cytotoxic, single point] | –
8 | CCOc1ccc(N2C(=O)CC(/C=C3/N(C)c4ccccc4C3(C)C)C2=O)cc1 (stereo unspecified) | inactive | –
9 | COc1ccc(C)cc1NC(=O)CCCN1C(=O)C2CC=CCC2C1=O (stereo unspecified) | inconclusive: 13 µM [cytotoxic, partial curve] | –
10 | CCN(C(C)=O)c1nc(CSc2nnc(NC(C)C)s2)cs1 | active: 23.1 µM | –
11 | CCOC(=O)C1=C(CCc2ccccc2)NC(=O)NC1c1ccc2ccccc2c1 (stereo unspecified) | inconclusive: 18.4 µM [cytotoxic, single point] | –
12 | CCC(c1nnnn1CCc1ccccc1)N(Cc1ccco1)Cc1cc2c(C)ccc(C)c2[nH]c1=O (stereo unspecified) | inconclusive: 32.6 µM [cytotoxic, single point] | –
13 | COc1cc2oc(=O)cc(CN(Cc3ccccc3)Cc3ccccc3)c2cc1Cl | inactive | –
14 | CCc1ccc(NC(=O)Cn2c(=O)oc3cc(S(=O)(=O)NCc4ccccc4)ccc32)cc1 | – | inconclusive: -19.3%
15 | c1cnc(N2CCN(Cc3c[nH]c4ccccc34)CC2)nc1 | inconclusive: 29.1 µM [cytotoxic, single point] | –
16 | CC1(C)OC(=O)C2(Cc3ccc(Cl)cc3N3CCCC32)C(=O)O1 (stereo unspecified) | inactive | –
17 | Cc1cccc(C)c1N(CC(=O)N1CCN(c2ccccc2F)CC1)S(C)(=O)=O | inactive | –
18 | COc1ccc(NC(=O)CSc2nc(O)c(C/C=C/c3ccccc3)c(=O)[nH]2)cc1 | inactive | –
19 | Cc1cc(C)n(C(=O)c2c([N+](=O)[O-])c(C)nn2C)n1 | inactive | –
20 | Cc1cc(F)ccc1NC(=O)CCCN(C)S(=O)(=O)c1ccc(F)cc1 | inconclusive: 16.4 µM [cytotoxic, partial curve] | –
21 | CCCCN1C(=O)C(CC(=O)NC2CC2)CC(C(=O)N(CC)CC)=C1C (stereo unspecified) | inconclusive: 16.4 µM [rising, partial curve, poor fit] | –
22 | CCCCC1CC2=C(C(=O)OC(C)(C)O2)C(c2cccc3ccccc23)O1 (stereo unspecified) | inactive | –
23 | O=C(Nc1ccc2nc(-c3ccco3)c(-c3ccco3)nc2c1)N1CCCCCC1 | inconclusive: 20.6 µM [cytotoxic, partial curve] | –
24 | CCN1C(=O)c2ccccc2Sc2ccc(C(=O)NCCCN3CCOCC3)cc21 | inconclusive: 32.6 µM [cytotoxic, partial curve, poor fit] | –

Three compounds from above, ordered by SMILES length, rising.
Row | SMILES | Potency | activity change, negative = cytotoxicity
7 | CCOc1cc2c3c(c1)C(C)=CC(C)(C)N3C(=O)C2=O | inconclusive: 29.1 µM [cytotoxic, single point] | –
19 | Cc1cc(C)n(C(=O)c2c([N+](=O)[O-])c(C)nn2C)n1 | inactive | –
6 | Cc1ccc(C)c(N2CCN(c3nc4ccccc4c4nc(-c5cccnc5)nn34)CC2)c1 | inconclusive: 20.6 µM [rising, partial curve, poor fit] | –

(further entries)

Row | SMILES | Potency | activity change, negative = cytotoxicity
25 | COc1ccc(CN(C(=O)c2oc3ccc(F)cc3c2C)C2CCS(=O)(=O)C2)cc1 (stereo unspecified) | inconclusive: 1.64 µM [cytotoxic, partial curve, poor fit] | –
26 | Cc1ccc(S(=O)(=O)N2CCN(C(=O)CCCN3C(=O)NC4(CCCC4)C3=O)CC2)cc1C | inconclusive: 29.1 µM [rising, single point] | –
27 | CCN(CC)CCn1c(=S)[nH]c2ccc(Br)cc2c1=O | inactive | –
28 | CCCCCCc1cc2cc(-c3nnc(-c4ccc(C)cc4)o3)c(=O)oc2cc1O | inactive | –
29 | Cc1nnc(-c2ccc(N3CCCCCC3)c([N+](=O)[O-])c2)o1 | inconclusive: 20.6 µM [cytotoxic, partial curve, poor fit] | –
30 | CCCCCNC(=O)C(CCc1ccccc1)n1c(=O)c(-c2cc3ccccc3[nH]2)nc2ccccc21 (stereo unspecified) | inactive | –
31 | Cn1c(C23CC4CC(CC(C4)C2)C3)n[nH]c1=S | inconclusive: 20.6 µM [cytotoxic, partial curve] | –
32 | COc1cccc(-c2c(-c3ccccc3OC)ncn2Cc2cccc(-c3ccccc3)c2)c1 | active: 13 µM | –
33 | CC(C)CCNc1nc2c(S(=O)(=O)c3ccc(Br)cc3)nnn2c2ccsc12 | inactive | –
34 | COc1c(C(=O)Nc2ccc(Cc3ccncc3)cc2)ccc2ccccc12 | active: 2.91 µM | –
35 | CCOC(=O)c1[nH]c2cc3c(cc2c1CCCN1C(=O)c2ccccc2C1=O)OCCO3 | inconclusive: 1.84 µM [cytotoxic, partial curve] | –
36 | Cc1cc(-n2c(C)cc(C(=O)COc3cccnc3[N+](=O)[O-])c2C)no1 | active: 16.4 µM | –
37 | Cc1cc(C)c(C#N)c(SCC(=O)N2CCN(Cc3ccccc3)CC2)n1 | inconclusive: 11.6 µM [cytotoxic, partial curve, poor fit] | –
38 | Fc1ccc(/C=N/NC(=S)Nc2ccc(Cl)cc2)cc1F | inactive | –
39 | CCOC(=O)C(C(=O)N1CCOCC1)C1CCCCC1 (stereo unspecified) | inconclusive: 11.6 µM [cytotoxic, partial curve] | –
40 | Cc1ccc(CNC(=O)C2CCC(=O)N(CCc3ccc(Cl)cc3)C2)s1 (stereo unspecified) | inconclusive: 23.1 µM [cytotoxic, single point] | –
41 | ON=C(c1ccccc1)c1ccc2c3c(cccc13)CC2 | inconclusive: 18.4 µM [cytotoxic, single point] | –
42 | COc1ccc(C=O)cc1COc1ccc2c(c1)OCO2 | inconclusive: 29.1 µM [cytotoxic, single point] | –
43 | Cc1c(N2C(=O)/C(=C\c3ccc(N(C)C)cc3)N(C)C2=S)c(=O)n(-c2ccccc2)n1C | inactive | –
44 | Clc1ccc(C#Cc2cccnc2)cc1 | inconclusive: 5.8 µM [rising, partial curve] | –
45 | Fc1ccccc1CNc1ncnc2sccc12 | inactive | –
46 | C=CCN1C(c2ccc(Br)cc2)=CS/C1=C(\C#N)c1nnc(N2CCOCC2)n1-c1ccccc1 | inconclusive: 11.6 µM [cytotoxic, partial curve, poor fit] | –
47 | COc1ccc(-c2noc(CSc3nnc(Cc4ccccc4)n3-c3ccc(Cl)cc3)n2)cc1 | active: 11.6 µM | –
48 | Cn1c(C(=O)NCCN2CCc3ccccc3C2)cc2c(=O)[nH]c3ccccc3c21 | inconclusive: 18.4 µM [cytotoxic, single point] | –

Row | SMILES | Potency | activity change, negative = cytotoxicity
49 | CCN1CCN(c2nc3c(c(=O)[nH]c(=O)n3C)n2CCSc2nc3ccccc3s2)CC1 | inactive | –
50 | COc1cccc(CNC(=O)c2ccc(-c3nc(CS(=O)(=O)c4ccccc4)c(C)o3)cc2)c1 | inconclusive: 5.17 µM [cytotoxic, full curve] | –
51 | CCn1c(N2CCN(CC(=O)c3c(C)n(C)c4ccc(OC)cc34)CC2)nc2c1c(=O)[nH]c(=O)n2C | inactive | –
52 | NC(=O)C1CCN(Cc2nc3ccccc3c(=O)[nH]2)CC1 | inactive | –
53 | CCOc1ccc(-c2ccc(SCC)nn2)cc1 | inconclusive: 20.6 µM [cytotoxic, single point] | –
54 | CCOc1ccc(Nc2nc3c(c(=O)[nH]2)CCC3)cc1 | inconclusive: 16.4 µM [cytotoxic, single point] | –
55 | Cc1cc(C(F)(F)F)nc(SCC(=O)Nc2c(C)n(C)n(-c3ccccc3)c2=O)n1 | inactive | –
56 | COc1cc2c(cc1OC)CN(C(=O)c1sc(-c3cnccn3)nc1C)CC2 | inconclusive: 8.2 µM [cytotoxic, partial curve] | –
57 | O=S1(=O)N[C@H](Cc2ccccc2)COc2cccc(N3CCSCC3)c21 | inactive | –
58 | COc1ccc(CCNC(=O)c2cnc3sc(N4CCC(C)CC4)nn3c2=O)cc1OC | inactive | –
59 | O=C(Nc1ccc(C(F)(F)F)cc1)C1CCCN(S(=O)(=O)c2cccc3cccnc23)C1 (stereo unspecified) | inactive | –
60 | CC(=O)Nc1ccc(S(=O)(=O)NCc2ccc(C(=O)NCc3ccc(Cl)cc3)cc2)cc1 | inconclusive: 13 µM [rising, partial curve, poor fit] | –
61 | O=c1oc2ccccc2c(NCc2cccc(F)c2)c1[N+](=O)[O-] | inconclusive: 18.4 µM [cytotoxic, single point] | –
62 | COC(=O)c1cc2sccc2n1Cc1nc(-c2cccc(Br)c2)oc1C | inconclusive: 11.6 µM [rising, partial curve, poor fit] | –
63 | O=C(NCCC(=O)N1CCN(S(=O)(=O)c2ccccc2Cl)CC1)Nc1ccccc1 | inactive | –
64 | Cc1cc(=O)n(Cc2ccccc2)c2ccccc12 | inactive | –
65 | Cc1ccc(N(Cc2ccccc2)C(=O)c2ccc(Cl)c(S(=O)(=O)N3CCOCC3)c2)cc1 | inconclusive: 11.6 µM [cytotoxic, partial curve, poor fit] | –
66 | CCNS(=O)(=O)c1ccc(OC)c(C)c1 | inactive | –
67 | Cc1ccc(C(=O)C2CCN(CC(=O)Nc3nc(C)cs3)CC2)cc1 | active: 20.6 µM | –
68 | COc1ccc(CNC(=O)C(C)N(C)Cc2cccc(F)c2)cc1 (stereo unspecified) | inactive | –
69 | COC(=O)[C@H](Cc1ccccc1)NC(=O)N1CCN(Cc2ccccc2)CC1 | inconclusive: 29.1 µM [cytotoxic, single point] | –
70 | Cn1cc(/C=C(\C#N)C(=O)Nc2ncc(Cc3ccc(Cl)cc3)s2)c2ccccc21 | inconclusive: 23.1 µM [cytotoxic, partial curve, poor fit] | –
71 | C[C@H]1CN([C@@H](C)CO)C(=O)Cc2cc(NS(=O)(=O)c3ccc(Cl)cc3)ccc2O[C@@H]1CN(C)C(=O)Nc1cccc2ccccc12 | inconclusive: 0.0052 µM [cytotoxic, full curve, poor fit] | –
